Assay results taken from ChEMBL document CHEMBL3124800, “HTS followed by NMR based counterscreening. Discovery and optimization of pyrimidones as reversible and competitive inhibitors of xanthine oxidase” (Bioorg Med Chem Lett, 2014).
In brackets after ≈: the same amount, converted by molar mass.

Experiment: Solubility of the compound in phosphate buffer at pH 7.4

Q: For CC(C)COc1ccc(-c2nc(N)[nH]c(=O)c2Cl)cc1C#N, which solubility is on record?
A: 3.1 µM (≈ 0.988 µg/mL)
